Results as given in US20110035817A1.
Results are given in words; binding and its absence hold for the method and conditions named. Binding seen in cells or lysates may run through a third protein. Some binding calls cover weakened binding; strength is not graded here. Where a sequence is shown, tags or fusion partners need not be part of it.

Chains of the proteins cited; added tags and fusions are not shown.
UniProt Q13490: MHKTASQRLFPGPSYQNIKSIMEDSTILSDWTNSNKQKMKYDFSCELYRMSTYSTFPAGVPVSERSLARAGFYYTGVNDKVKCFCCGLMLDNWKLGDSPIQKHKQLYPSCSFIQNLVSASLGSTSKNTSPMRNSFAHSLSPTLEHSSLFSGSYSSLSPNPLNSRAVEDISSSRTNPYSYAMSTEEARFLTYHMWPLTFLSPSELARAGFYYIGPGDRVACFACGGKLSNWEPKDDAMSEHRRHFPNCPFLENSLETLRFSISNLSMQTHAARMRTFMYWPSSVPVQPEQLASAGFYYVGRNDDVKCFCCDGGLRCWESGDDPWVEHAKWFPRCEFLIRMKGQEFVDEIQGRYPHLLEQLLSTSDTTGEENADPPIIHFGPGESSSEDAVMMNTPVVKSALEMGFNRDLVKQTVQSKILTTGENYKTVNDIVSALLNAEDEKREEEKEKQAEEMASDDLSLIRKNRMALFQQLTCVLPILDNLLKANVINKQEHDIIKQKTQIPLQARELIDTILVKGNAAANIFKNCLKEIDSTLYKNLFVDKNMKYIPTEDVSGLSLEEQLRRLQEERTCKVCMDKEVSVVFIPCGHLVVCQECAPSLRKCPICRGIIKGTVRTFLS
UniProt Q99558: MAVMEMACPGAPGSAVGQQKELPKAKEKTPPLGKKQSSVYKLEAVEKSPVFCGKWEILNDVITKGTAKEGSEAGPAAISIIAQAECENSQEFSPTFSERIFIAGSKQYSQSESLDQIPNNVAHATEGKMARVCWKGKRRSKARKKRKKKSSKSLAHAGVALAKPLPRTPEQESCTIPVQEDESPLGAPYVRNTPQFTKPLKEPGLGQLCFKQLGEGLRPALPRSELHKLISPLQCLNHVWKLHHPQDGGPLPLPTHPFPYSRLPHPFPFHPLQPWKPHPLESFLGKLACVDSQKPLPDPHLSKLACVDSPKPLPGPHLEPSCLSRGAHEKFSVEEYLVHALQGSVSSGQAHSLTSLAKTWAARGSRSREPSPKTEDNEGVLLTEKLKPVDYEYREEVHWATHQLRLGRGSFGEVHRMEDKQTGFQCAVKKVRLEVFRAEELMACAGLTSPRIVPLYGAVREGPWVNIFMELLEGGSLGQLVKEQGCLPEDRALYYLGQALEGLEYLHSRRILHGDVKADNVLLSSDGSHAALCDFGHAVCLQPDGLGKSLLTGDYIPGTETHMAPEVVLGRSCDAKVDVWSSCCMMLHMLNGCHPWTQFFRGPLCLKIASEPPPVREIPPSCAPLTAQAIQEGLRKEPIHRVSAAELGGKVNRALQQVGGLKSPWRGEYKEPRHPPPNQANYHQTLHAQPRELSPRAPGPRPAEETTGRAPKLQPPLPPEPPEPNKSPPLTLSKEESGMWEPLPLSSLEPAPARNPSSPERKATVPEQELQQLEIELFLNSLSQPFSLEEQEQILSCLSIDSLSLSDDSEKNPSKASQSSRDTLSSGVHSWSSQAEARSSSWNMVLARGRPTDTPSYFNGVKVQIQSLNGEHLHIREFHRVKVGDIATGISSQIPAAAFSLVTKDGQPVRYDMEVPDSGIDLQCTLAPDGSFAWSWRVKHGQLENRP

What was measured:
[1] = target: endogenous cellular inhibitor of apoptosis protein 1 (cIAP1) (UniProt Q13490); test: co-immunoprecipitation from HEK-293T lysate: endogenous cIAP1 immunoprecipitated with anti-cIAP1, SIVA detected by Western blot
[2] = target: myc-NIK (wild-type NIK fused N-terminally to a six myc tag) (UniProt Q99558); test: co-immunoprecipitation from HEK-293T lysate: NIK immunoprecipitated with anti-NIK antibody, SIVA detected by Western blot (FIG. 5)

- binding [1]: binds
- binding [2]: binds
B1: FLAG-SIVA2 (protein, human, UniProt O15304-2 1-110, looked up, not shown: small tags and cut ends)
chain: MPKRSCPFADVAPLQLKVRVSQRELSRGVCAERYSQEVFDPSGVASIACSSCVRAVDGKAVCGQCERALCGQCVRTCWGCGSVACTLCGLVDCSDMYEKVLCTSCAMFET
